Assay results published in the supplement of paper PMC12889115.
The other results are listed elsewhere or left out. These are raw signals, not scaled to a control.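 First-pass screen: polymyxin B was added at a level that permeabilizes the Salmonella outer membrane while sparing the inner membrane. DMSO wells, with and without polymyxin B, defined maximum growth. Because plates differed from one another, each plate's data were ranked separately and the compounds with the lowest OD600 were carried forward as hits.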

System: Salmonella enterica serovar Typhimurium SL1344
Experiment: bacterial growth OD600 after 18 h with compound and polymyxin B; higher = more bacterial growth (less inhibition)
Details: 50 µM, Mueller-Hinton broth

Row | Compound | bacterial growth OD600 (polymyxin B 0.75 µg/mL) | bacterial growth OD600 (polymyxin B 1 µg/mL)
1 | Cc1nc(N2CCC(C(=O)NCCc3ccccc3)CC2)nc2ccc(C(C)C)cc12 | 0.812 | 
2 | CN(C(=O)c1ccn(C)n1)C(Cc1ccccc1)C1CCN(C(=O)c2cc3ccccc3oc2=O)CC1 (centres undefined) | 0.968 | 
3 | COC(=O)CCC(=O)N1CCC(Oc2ccc(C(=O)NC3CCCC3)cc2Cl)CC1 |  | 1.13
4 | CCOC(=O)C1(CCCc2ccccc2)CCCN(C(=O)C2=NNC(=O)CC2)C1 (centres undefined) |  | 1.26
5 | Cn1cc(CCC(=O)N2CCOC(Cc3ccccc3Cl)C2)cn1 (centres undefined) | 0.956 | 
6 | COCc1ccc(CN(Cc2cccnc2)CC2CCCN(C3CCCCC3)C2)o1 (centres undefined) | 0.757 | 
7 | CCOC(=O)C1(CCc2ccccc2)CCN(Cc2ccc(COC)o2)CC1 |  | 0.866
8 | C/C=C(\C)CN1CCC(n2nccc2NC(=O)CC(C)C)CC1 | 0.724 | 
9 | Cc1cccc(C(=O)NC2CC(C)(C)Cc3nc(N4CCOCC4)ncc32)n1 (centres undefined) | 0.826 | 
10 | CCOc1ccc(CNC2CCCN(c3ncccn3)C2)cc1Cl (centres undefined) |  | 0.876
11 | Cc1noc(C)c1CCCNC(=O)c1ccc(N2CCN(CC3CC3)CC2)nc1 |  | 1.2
12 | Cc1ccn(CC(=O)N2CCCC(CCc3ccccc3C)C2)n1 (centres undefined) | 0.003 | 
13 | CN(C)c1ncccc1CNCc1ccc2c(c1)OCCO2 |  | 0.995
14 | O=C1CCC(C(=O)N2CCOCC2)CN1Cc1ccc(Cl)cc1 (centres undefined) |  | 0.953
15 | CN(c1ncccc1CNS(C)(=O)=O)C1CCCCC1 |  | 0
16 | Cc1ccc(OCCN(C)C(=O)C2CC23CCN(Cc2ccoc2)CC3)cc1 (centres undefined) | 0.891 | 
17 | CCOC(=O)C1(CC2CCCCO2)CCN(C(=O)/C=C/c2cccs2)CC1 (centres undefined) |  | 0.64
18 | CCc1ccc(CN(C)C(=O)C2CCC(=O)N(CCCN3CCOCC3)C2)nc1 (centres undefined) |  | 0.953
19 | O=C1N[C@H](C(=O)N2CCC3(CC2)CC3C(=O)NCCC2=CCCCC2)CS1 (some centres undefined) | 0.91 | 

Entries 18 through 19, quoted:
Row | Compound | bacterial growth OD600 (polymyxin B 0.75 µg/mL) | bacterial growth OD600 (polymyxin B 1 µg/mL)
18 | CCc1ccc(CN(C)C(=O)C2CCC(=O)N(CCCN3CCOCC3)C2)nc1 (centres undefined) |  | 0.953
19 | O=C1N[C@H](C(=O)N2CCC3(CC2)CC3C(=O)NCCC2=CCCCC2)CS1 (some centres undefined) | 0.91 | 
